Paper PMC9985635
No constants are given. Whether binding was seen depends on the method and setting. In cells and extracts the contact can be indirect. These calls come from enrichment with a bait or labelling near it, and not all partners need be listed. Tags and fused reporters may be left off the sequences shown.

Molecular target: T1, Flag-LKB1 (UniProt Q15831)
T1 sequence: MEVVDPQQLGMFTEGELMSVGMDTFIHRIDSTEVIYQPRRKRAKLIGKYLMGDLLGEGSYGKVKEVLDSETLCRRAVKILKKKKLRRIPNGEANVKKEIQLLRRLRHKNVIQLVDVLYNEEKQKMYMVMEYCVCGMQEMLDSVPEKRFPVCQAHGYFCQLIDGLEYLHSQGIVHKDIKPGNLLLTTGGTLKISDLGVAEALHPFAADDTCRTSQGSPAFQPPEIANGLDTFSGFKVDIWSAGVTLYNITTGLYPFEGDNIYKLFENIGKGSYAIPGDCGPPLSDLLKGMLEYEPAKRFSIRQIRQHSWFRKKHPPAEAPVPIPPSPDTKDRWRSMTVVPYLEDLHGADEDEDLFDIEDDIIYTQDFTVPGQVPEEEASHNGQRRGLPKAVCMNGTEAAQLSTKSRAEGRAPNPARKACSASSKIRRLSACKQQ
Assay: affinity purification with mass spectrometry; control vector or Flag-LKB1-overexpressing vector in H1299 cells; immunoprecipitation with anti-Flag antibody, then NanoLC-ESI-MS/MS

B1: retinoblastoma protein RB (H1299 cells) (protein, UniProt P06400 1-928)
chain: MPPKTPRKTAATAAAAAAEPPAPPPPPPPEEDPEQDSGPEDLPLVRLEFEETEEPDFTALCQKLKIPDHVRERAWLTWEKVSSVDGVLGGYIQKKKELWGICIFIAAVDLDEMSFTFTELQKNIEISVHKFFNLLKEIDTSTKVDNAMSRLLKKYDVLFALFSKLERTCELIYLTQPSSSISTEINSALVLKVSWITFLLAKGEVLQMEDDLVISFQLMLCVLDYFIKLSPPMLLKEPYKTAVIPINGSPRTPRRGQNRSARIAKQLENDTRIIEVLCKEHECNIDEVKNVYFKNFIPFMNSLGLVTSNGLPEVENLSKRYEEIYLKNKDLDARLFLDHDKTLQTDSIDSFETQRTPRKSNLDEEVNVIPPHTPVRTVMNTIQQLMMILNSASDQPSENLISYFNNCTVNPKESILKRVKDIGYIFKEKFAKAVGQGCVEIGSQRYKLGVRLYYRVMESMLKSEEERLSIQNFSKLLNDNIFHMSLLACALEVVMATYSRSTSQNLDSGTDLSFPWILNVLNLKAFDFYKVIESFIKAEGNLTREMIKHLERCEHRIMESLAWLSDSPLFDLIKQSKDREGPTDHLESACPLNLPLQNNHTAADMYLSPVRSPKKKGSTTRVNSTANAETQATSAFQTQKPLKSTSLSLFYKKVYRLAYLRLNTLCERLLSEHPELEHIIWTLFQHTLQNEYELMRDRHLDQIMMCSMYGICKVKNIDLKFKIIVTAYKDLPHAVQETFKRVLIKEEEYDSIIVFYNSVFMQRLKTNILQYASTRPPTLSPIPHIPRSPYKFPSSPLRIPGGNIYISPLKSPYKISEGLPTPTKMTPRSRILVSIGESFGTSEKFQKINQMVCNSDRVLKRSAEGSNPPKPLKKLRFDIEGSDEADGSKHLPGESKFQQKLAEMTSTRTRMQKQKMNDSMDTSNKEEK
With B1 the binding was “binds”.
